The text below walks through data of patent US4774319 (dated 1988).

Square brackets hold non-standard residues; d marks the D form. * marks the point of attachment. Mts = Cc1cc(C)c(S(=O)(=O)*)c(C)c1; Met(O) = CS(=O)CC[C@H](N)C(=O)O; OPac = O=C(CO*)c1ccccc1; Cbz = O=C(OCc1ccccc1)*; Boc = CC(C)(C)OC(=O)*; OcHex = C1CCC(O*)CC1; OBn = c1ccc(CO*)cc1; Bn = c1ccc(C*)cc1

The first data set can be described thus: general procedure: solution-phase peptide synthesis; WSC/HOBt; SBCF mixed anhydride with NMM; ONp active esters; DCC or WSC with HOSu. Particulars: coupling step.
As to Boc-IFT(Bn)NS(Bn)Y(Bn)-OBn, the step yield was 92%.

In turn, “Boc-Ile-Phe-Thr-Asn-Ser-Tyr-Arg(Mts)-Lys(Z)-Val-Leu-Gly-Gln-Leu-Ser(Bzl)-Ala-Arg(Mts)-Lys(Z)-Leu-Leu-Gln-Asp(OBzl)-Ile-Met(O)-Ser(Bzl)-Arg(Mts) NH2” displayed a step yield of 83.8%.

Consider Boc-LS(Bn)AR(Mts)K(Cbz)L-OPac, for which the step yield amounted to 85.0%.

The same data set, now with this note: coupling step; run 1.
Boc-FT(Bn)NS(Bn)Y(Bn)-OBn came in with a step yield of 92.0%.

“Boc-Tyr-Ala-Asp(OcHex)-Ala-Ile-Phe-Thr-Asn-Ser-Tyr-Arg(Mts)-Lys(Z)-Val-Leu-Gly-Gln-Leu-Ser(Bzl)-Ala- Arg(Mts)-Lys(Z)-Leu-Leu-Gln-Asp(OBzl)-Ile-Met(O)-Ser(Bzl)-Arg(Mts)-NH2”: the step yield was 100%.

In turn, Boc-Y(Bn)AD(OcHex)AI-OBn showed a step yield of 100%.

Substance Boc-AR(Mts)K(Cbz)L-OPac registered a step yield of 89.0%.

As for Boc-YAD(OcHex)AIFT(Bn)NS(Bn)Y(Bn)-OBn, the step yield was 53.5%.

Take Boc-T(Bn)NS(Bn)Y(Bn)-OBn: the step yield came to 82.2%.

With “Boc-QLS(Bn)AR(Mts)K(Cbz)LLQD(OBn)I[Met(O)]S(Bn)R(Mts)-NH2”, the step yield stood at 81.6%.

For the substance “Boc-R(Mts)K(Cbz)VLGQLS(Bn)AR(Mts)K(Cbz)LLQD(OBn)I[Met(O)]S(Bn)R(Mts)-NH2”, the step yield was found to be 100%.

Substance Boc-K(Cbz)VLG-OPac came in with a step yield of 80.1%.

Still in this data set, the particulars now being: coupling step; run 2.
Substance Boc-FT(Bn)NS(Bn)Y(Bn)-OBn registered a step yield of 81.6%.

“Boc-QLS(Bn)AR(Mts)K(Cbz)LLQD(OBn)I[Met(O)]S(Bn)R(Mts)-NH2” displayed a step yield of 77%.

Still in this data set, the particulars now being: late stage modification step.
Regarding Boc-YAD(OcHex)AIFTNSY-OH, the step yield is 93.4%.

Regarding Boc-Tyr(Cl2 -Bzl)-Ala-Asp(OBzl)-Ala-OH, the step yield is 81.3%.

In the case of Boc-IFTNSY-OH, the step yield worked out at 80.7%.

Regarding Boc-YAD(OcHex)AI-OH, the step yield is on record as 87.3%.

Still in this data set, the particulars now being: late stage modification step; run 1.
PMZ-Arg(Mts)-Lys(Z)-Val-Leu-Gly-OH returned a step yield of 82.4%.

With H-LQD(OBn)I[Met(O)]S(Bn)R(Mts)-NH2, the step yield worked out at 99.2%.

On to H-FT(Bn)NS(Bn)Y(Bn)-OBn, for which the step yield was 99.95%.
